The values that follow come from patent US20210310040A1, “SUSCEPTIBILITY AND RESISTANCE OF MICROORGANISMS” (priority 2017, published 2021).

As usually defined, the MIC is the lowest concentration found to suppress growth. A low value points to a more susceptible organism.

SMILES strings stand for the structures. In brackets after ≈: the same amount, converted by molar mass.

One test concerns E. coli AR 84 (ESBL). Briefly: Susceptibility by perturbation of VOCs, single indicator response after addition of antibiotic. It counts as cell-based. As to conditions: Escherichia coli, 3 h; 5×10^5 CFU/ml; observed in under three hours, FIG. 51. The text has this: (§1) However, it has been discovered that detection of changes in VOC output of microorganism—in addition to changes in the number of microorganisms—can be detected by the sensor 808 after application of antibiotics. The change in the sensor 808 response can also be correlated to susceptibility of the microorganism to antibiotics. For instance, it has been discovered that after application of antibiotics, certain sensors decrease or show less response at certain concentrations. This change in VOC output can be correlated to the resistance or susceptibility of the microorganisms in the sample to the antibiotic or other substance introduced. In other examples, a change in compound output that remain in solution (not limited to VOCs) may be correlated to a susceptibility of the microorganisms.
In the resistant strain illustrated in FIG. 48, AR 84 (ESBL), the antibiotic is added at the same time, but the red component of the sensor response continues to increase over time. […] Accordingly, in this embodiment, the sensor 808 response of a single indicator may be monitored. Changes in the slope of the indicator response over time, or decreases in the indicator may be monitored to determine when there is potentially a susceptible organism. […]

A further test deals with S. aureus 29213 (MSSA). Briefly: Susceptibility by perturbation of VOCs, single indicator response with antibiotic. The test is classed as cell-based. As to conditions: Staphylococcus aureus, 2.5 h.
Excerpt: as §1
FIG. 52 illustrates two graphs showing the MIC observed for two different antibiotics to S. aureus 29213 (MSSA). The graph on the left portion of FIG. 52 illustrates a MIC of 1 μg/ml to Cefoxitin and the graph on the right illustrations a MIC of 0.5 μg/ml of Vancomycin.

`CC1(C)S[C@@H]2[C@H](NC(=O)[C@H](N)c3ccccc3)C(=O)N2[C@H]1C(=O)O` [Ampicillin]: the MIC with E. coli AR 84 (ESBL) came to 64 µg/mL (≈ 183 µM).

For `CN[C@H](CC(C)C)C(=O)N[C@H]1C(=O)N[C@@H](CC(N)=O)C(=O)N[C@H]2C(=O)N[C@H]3C(=O)N[C@H](C(=O)N[C@H](C(=O)O)c4cc(O)cc(O)c4-c4cc3ccc4O)[C@H](O)c3ccc(c(Cl)c3)Oc3cc2cc(c3O[C@@H]2O[C@H](CO)[C@@H](O)[C@H](O)[C@H]2O[C@H]2C[C@](C)(N)[C@H](O)[C@H](C)O2)Oc2ccc(cc2Cl)[C@H]1O` [Vancomycin], in the test on S. aureus 29213 (MSSA), it took 0.5 µg/mL (≈ 0.345 µM) to inhibit growth (MIC).
